Screening data

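Luminescence from an EWS-FLI1 target-promoter (NR0B1) reporter, set against a CMV-promoter reporter, two days after silencing single genes in TC32 Ewing sarcoma cells. Each siRNA was applied at 20 nM. A z-score of the log NR0B1-over-CMV signal, less the median of siRNAs with the same seed; more negative means a stronger specific loss of the NR0B1 reporter.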

This is part of the screen; most of the strongest results are not listed here. Sequences are the guide (antisense) strand, without overhang.

strand	gene	seed-corrected z-score
AAAUCGGAUACCAAGAAUC	ZBTB14	-0.3842
UUGAAGCCCAUGUAGAUCC	AVPR1B	0.9812
AAAGAUGCAACAAGUCUCU	MZT2B	0.6384
UUUGAAACCUCACCCACAG	NUDT16L1	-0.1358
UUCCUUAUUAGAUUGAGAC	TTLL1	-0.9506
UGAGGGUAAGGAUGAAUCC	PPP2R4	-0.05831
AAUGAUUGUACUUCUGUAG	UGP2	0.25
AUGUGAUCUACAAUGGUGC	MB21D2	1.483
UUCUGUACUACAGUACUCA	KLRB1	0.1804
UUCUGUGAACGGGAUGUGC	SHISA9	0.5726
UUCUUUCAAGAGGUCCCGC	C4orf46	-0.7574
AUCUCACUCACAAAAGUCU	SERHL	0.4936
UACUAGAGGAUGAAUAAGG	ATN1	0.09524
UAAACUUCCGGUACCGCUC	KDM3B	0.1217
AAAUGAUGCAAUAAUUGUC	FAM9A	-0.03946
UACCGAUGAGCUGUGGUAG	DEFB132	-0.5214
UUCUCGUACAUGUCACUGC	SIVA1	-0.5666
UCAAUUCGAAUCCAUCGCC	NTF4	0.2116
UUCGAGACCACAAGAUAGU	NPIPB1P	0.5447
UUCUGAGCAAUCCAUCAGU	LINC01300	-0.6165
AUGGAUACCAUCAAUCAGC	ACRC	-0.3915
AUAGAUCUCAGCAAUGGAG	NAPA	-0.002957
AAGUCUACACCUUUCAGGC	ETS1	-1.489
AAACUCACACCCUUGCUUG	CXCR4	-0.1991
UUUCCAACCUCCCAUUUGC	ZIK1	-0.1328
UUACUCCUUUCAAUGGUCG	RPL22P3	0.3871
UUUGAGCCCAGGUGAAUCU	SEC61B	1.393
UCCGCGUAGAAGCAACUGC	HEXDC	-1.295
UCUUUGACAUAUACCACUG	C2orf15	0.1356
AGCCUUUAAAUGGAUGCCC	FRRS1	-0.6388
AACACUUCUAUAUUGUUGC	FAM9B	0.2793
AAACCAAGCAGUUUCCUCC	KLHL2P1	-1.008
UUUGUCUUACAAGCAAUUU	PGPEP1L	-0.897
AUCUGUUCUGUAUACUUUC	NDUFA5	-0.307
AUUGAAUCCAGAUUGGAAG	IL6	1.332
UGCGGUAGCACUUACGAGU	PFDN2	-0.2109
AGAGUUCAUAGAAAGCUUU	PRAMEF5	-1.474
UCGGGUACCUUUCUUUCCG	BRSK2	-0.2231
UGAGUAGACACCGUCAUCC	CLCA1	0.219
UUGAGCUCCAACUUCUCCG	COL9A1	0.3639
UGGGCGAUUGUUCCACCUC	NPIPB15	-1.513
UAUGAAAUAAGACAGGUAG	PI4KA	-0.136
UAUGGUGACUCCUUUUAGC	H2AFY	0.1855
UCGUUCUUACGUAUGACCG	P2RY12	-0.1473
UUGAGGUCGAGGUACUUGG	DAGLA	-0.415
UCAGGAGCCCUGCAAACUG	C9orf114	0.4204
AUACUUCUUAGCCCAAUCC	CYP46A1	0.3558
AGAACUUAAACUUGCAGCC	TSPYL6	0.09822
UGGUGUAUCAACAAGCAUC	COG7	-0.1964
AAAGUGCUCAGGAUGGAAC	LPXN	1.363
UCUGUAGAAUGAGAUCUCC	TJP3	0.4743
UUAUAUUAUCACUAAGCUC	ANP32E	0.1214
AAUCGCAAUAUUUCUAGCC	DOCK9	-0.08693
UUUUGAUCAGUAGGUAUGG	C17orf80	-0.1249
UCAUGAUCUGGAGCUCUCG	GSK3B	0.1599
UCAGGUAGUUGAGUGUAGC	ADCY5	-0.4588
UUGGAAGUUAGUAAUCUUC	TAS2R4	1.004
AAUGUUGAUCUCAUCGGGC	PPP1R14A	0.4748
UCCGUAAUAAGAGCGUGUU	NAB2	-0.01475
AUUCAGAAAACUUCCGGGC	DZIP1L	0.5548
UUCUGGGUGAGGUCAAUCC	MAP3K14	1.377

5 of the entries, repeated:

* UUCUGGGUGAGGUCAAUCC against MAP3K14 : seed-corrected z-score 1.377
* UUUGAAACCUCACCCACAG against NUDT16L1 : seed-corrected z-score -0.1358
* UCGGGUACCUUUCUUUCCG against BRSK2 : seed-corrected z-score -0.2231
* AUCUGUUCUGUAUACUUUC against NDUFA5 : seed-corrected z-score -0.307
* UUAUAUUAUCACUAAGCUC against ANP32E : seed-corrected z-score 0.1214

Data taken from PubChem BioAssay AID1159506, deposited by NCATS (2015).